Results of single-concentration screens

The values are deposited in ChEMBL (CHEMBL3988442, “University of Dundee, Small-Polar-MMV Screening Library” (2021)).

A: 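Phenotypic screen: M. tuberculosis growth, glucose 7H9 medium, 3 days; the read-out is not stated. Concentration: 50 µM. Higher reads as more growth inhibition (inferred: compounds with an IC50 in retests scored well above the rest). Of about 69,000 compounds tested this way, about 760 (1.1%) reached 50% or more in at least one test.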
B: 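Phenotypic screen: M. tuberculosis growth, cholesterol and DPPC medium, 4 days; the read-out is not stated. Concentration: 50 µM. Direction is inferred from retests: higher values go with more growth inhibition. Of about 69,000 compounds tested this way, about 370 (0.54%) reached 50% or more in at least one test.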

Each number is a percent effect as filed. How 0% and 100% were set is not recorded. Most values in the screen are low, and negative values occur. Compounds were drawn at random from those tested, without regard to their results. Two or more numbers in one place are separate tests of the same structure; such repeats can differ widely.

| # | compound | A | B |
|---|---|---|---|
| 1 | `Cc1nc(N2CCOCC2)nc2c1CCN(Cc1cccnc1)CC2.O=C(O)C(F)(F)F` | -3.528% | 13.46% |
| 2 | `[H][C@]12CC[C@]([H])(CN(C(C)=O)C1)N(C(=O)CCc1n[nH]c3c1CCCC3)C2` | 4.824% | -2.425% |
| 3 | `CCN(Cc1cn(C)nc1-c1ccc2c(c1)OCCO2)CC1CCCO1` (stereo not drawn) | -9.859% | -1.433% |
| 4 | `O=C(Cc1cnc(-c2c(Cl)cccc2Cl)s1)N1CCOCC1` | -11.95% | -21.21% |
| 5 | `O=C(c1ccncc1)N1CCc2onc(CN3CCCC3)c2C1` | 0.1879% and -57.53% | -76.85% |
| 6 | `CN1CCCN(c2nccc(-c3c[nH]nc3-c3ccncc3)n2)CC1` | 42.4% | -1.066% |
| 7 | `Cc1nc(C)n(C2CCCN(C(=O)c3cccc4[nH]ncc34)C2)n1` (stereo not drawn) | -8.071% | 8.259% |
| 8 | `COCCC1COC2(CCN(C(=O)C3CCCC3)CC2)C1` (stereo not drawn) | 5.282% | -6.169% |
| 9 | `O=C(c1ncccn1)N1CCC[C@]2(C[C@@H](OCC3CC3)CO2)C1` | -29.81% | -7.357% and -7.932% |
| 10 | `O=C(NCc1nnc2n1CCCC2)N(Cc1ccccc1F)C1CC1` | 3.979% | -5.6% |
| 11 | `CCc1nc(C2CCCN2C(=O)C2=COCC2)no1` (stereo not drawn) | -26.93% | -12.17% |
| 12 | `CCNc1cc2c(nn1)CCN(C(=O)C1COc3ccccc3O1)C2` (stereo not drawn) | 17.07% | 7.398% |

Repeated from the top, 2 entries:

compound,A,B
Cc1nc(N2CCOCC2)nc2c1CCN(Cc1cccnc1)CC2.O=C(O)C(F)(F)F,-3.528%,13.46%
[H][C@]12CC[C@]([H])(CN(C(C)=O)C1)N(C(=O)CCc1n[nH]c3c1CCCC3)C2,4.824%,-2.425%